Over roughly 33,000 sequences, “E-score (-0.5 to 0.5)” has its median near -0.015; the highest 2% begin near 0.3. Some of the results follow.
biological target: T1, Abf1 (UniProt P14164); experiment: PBM E-score (8-mer binding enrichment) (E-score (-0.5 to 0.5)); higher = stronger / more preferred TF binding; conditions: protein concentration: 200 nM; construct: GST-full length
T1 sequence: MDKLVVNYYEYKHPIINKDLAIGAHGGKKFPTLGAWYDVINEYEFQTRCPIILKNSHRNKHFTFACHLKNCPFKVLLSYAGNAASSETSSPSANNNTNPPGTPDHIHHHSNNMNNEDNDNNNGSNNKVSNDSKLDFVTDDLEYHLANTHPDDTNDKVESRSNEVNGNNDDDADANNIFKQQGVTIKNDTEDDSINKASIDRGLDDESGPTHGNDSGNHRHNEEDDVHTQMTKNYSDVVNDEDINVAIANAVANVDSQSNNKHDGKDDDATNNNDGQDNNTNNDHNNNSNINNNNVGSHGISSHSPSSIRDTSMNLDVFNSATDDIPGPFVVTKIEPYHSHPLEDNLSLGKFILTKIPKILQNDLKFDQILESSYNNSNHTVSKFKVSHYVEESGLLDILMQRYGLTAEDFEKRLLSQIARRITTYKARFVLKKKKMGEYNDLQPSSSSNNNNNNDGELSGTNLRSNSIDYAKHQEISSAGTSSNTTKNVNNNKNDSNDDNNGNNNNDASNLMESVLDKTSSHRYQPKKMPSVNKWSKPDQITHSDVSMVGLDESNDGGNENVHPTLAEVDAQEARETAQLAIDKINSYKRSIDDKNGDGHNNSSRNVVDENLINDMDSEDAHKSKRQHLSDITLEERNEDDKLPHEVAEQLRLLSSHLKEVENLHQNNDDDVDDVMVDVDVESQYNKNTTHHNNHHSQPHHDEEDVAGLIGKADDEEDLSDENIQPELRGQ
Summary of the method: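 For each ungapped eight-base word taken together with its reverse complement, the Universal PBM Analysis Suite assigned an E-score. Binding data came from GST-tagged yeast transcription factors, applied at about 100-200 nM, on universal all-10-mer Agilent arrays made double-stranded by primer extension. Fluorescent anti-GST marked bound protein, and scans were normalised with masliner.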

Sequence | PBM E-score
CGCGAATA | -0.0651
CAGAAATC | 0.0523
CAGACGTC | -0.103
ACCCACAG | -0.137
ATCAAGTC | 0.119
AGTCTCTG | -0.0939
ACACACCG | 0.0052
AGAAAATC | 0.173
AGATCGAT | -0.0787
ACGATTTC | 0.245
CAGCGGGA | -0.0787
GCAGGTAC | -0.221
ACCATGGG | -0.293
GTATACTA | -0.0911
CCCATGGG | 0.0429
AGGAAAAA | 0.0885
GCCGCAAA | 0.0198
TATTAGAA | 0.129
ACCCTAAA | -0.0503
AGAAGCAT | 0.14
CGTAATGC | 0.139
TCAAGAAA | 0.0974

6 records picked at random from those above:
Sequence | PBM E-score
TCAAGAAA | 0.0974
CGCGAATA | -0.0651
GCCGCAAA | 0.0198
ACCCACAG | -0.137
GCAGGTAC | -0.221
AGAAGCAT | 0.14

Following part:

Sequence | PBM E-score
AATACCTA | 0.124
CACCAAGG | -0.309
GAGAAAAA | 0.109
TCCGGTAA | -0.0159
ATTCGATA | 0.154
GGAAAAAA | 0.222
CAAGACGC | -0.0963
ATGCTACC | 0.0183
AAAGCGAT | 0.219
CGCTACAG | -0.106
CATGCGGG | -0.0913
AGGCGGGA | -0.144
CAAGCGTC | -0.115
ATGGCTAC | 0.196
GACTACTA | 0.108
GAGACATC | 0.161
CTATAAGC | -0.143
CAGGTACG | -0.0976
CGCAATCA | -0.0511
AAGAAAAT | 0.123
GAAGGGCC | -0.184
GTCCAATA | 0.154

Sequence | PBM E-score
GAGACGCA | -0.0136
GCTGCGTA | -0.0932
CAGGTGTA | -0.12
GCGCGGAA | -0.12
CAGTGAAC | -0.016
GATAAGAC | 0.0408
GTAACCAA | 0.114
ACTTTCAA | 0.159
GACGTAAA | 0.199
GCCTGCGC | -0.167
ACACCGGA | -0.0729
CCATTCTA | 0.0476
AGTACCTG | 0.0482
ACGCGGCT | -0.0744
AGCTACAT | 0.118
CGAAAATC | 0.231
TATCGTCA | 0.33
ACTTCGTG | 0.0796
CATTGCCA | 0.095
CCACTCCA | -0.316
CGAGATCA | 0.262
CTTCGGGA | -0.0152

Sequence | PBM E-score
CCGCGTGA | 0.116
TCAAGCAA | 0.0828
AGCCGACG | -0.0935
AAGCGATT | 0.0803
CCATAGTC | -0.138
ACAATGGT | -0.215
GAATGGTC | 0.0192
CCCGTCCA | 0.152
AGACCTCG | 0.00988
GATAAGTA | 0.188
ACCTGTAC | 0.0101
ATTCCAGG | -0.0919
AACCCCAA | -0.155
GATCCGCA | -0.106
CCCGCATC | -0.1
CCAGGGTC | -0.217
AGGCTGTC | -0.105
TACGGCAA | 0.301
CCTGACAA | -0.064
CGAACGAC | 0.273
